Laboratory results: PMC8192900, “Label-free high-throughput screening assay for the identification of norepinephrine transporter (NET/SLC6A2) inhibitors” (Scientific Reports, 2021)

System: JumpIn-NET cells
Experiment: Effect of NET inhibitor alone on normalized Cell Index during 1 h pretreatment (xCELLigence)
Assay type: cell-based, human
Conditions: 10 µM, +dox JumpIn-NET cells

Row | SMILES | Effect on nCI during pretreatment at highest tested concentration
1 | CNCCCC12CCC(c3ccccc31)c1ccccc12.Cl [Maprotiline, maprotiline hydrochloride] | transient increase in nCI
2 | CN1C2CCC1CC(OC(c1ccccc1)c1ccccc1)C2.CS(=O)(=O)O (centres unmarked) [Benztropine, Benztropine mesylate] | transient increase in nCI
